Reference: patent US20170038365
For some assays here: Where a protein sequence is shown, tags need not be part of it.

Sequences of proteins named here, by UniProt entry; tags and fusion partners are left off.
UniProt O15527, whole entry: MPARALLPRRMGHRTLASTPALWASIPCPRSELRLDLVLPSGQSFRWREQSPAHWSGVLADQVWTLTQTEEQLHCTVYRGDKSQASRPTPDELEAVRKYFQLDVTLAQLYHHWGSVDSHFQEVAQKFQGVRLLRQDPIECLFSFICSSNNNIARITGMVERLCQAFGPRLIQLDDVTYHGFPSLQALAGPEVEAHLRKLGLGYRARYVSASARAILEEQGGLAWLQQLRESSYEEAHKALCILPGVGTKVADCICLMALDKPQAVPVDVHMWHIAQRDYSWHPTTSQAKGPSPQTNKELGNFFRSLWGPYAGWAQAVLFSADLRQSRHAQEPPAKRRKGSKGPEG

Assays:
[1] = biological target: OGG1 (8-oxoguanine DNA glycosylase-1) (Homo sapiens) (UniProt O15527); experiment: enzyme reaction in vitro; conditions: n is 8-oxo-guanine; complement SEQ:2 appears printed 3'-5' [6 (8-oxo-guanine)]; 20 mM Tris-HCl, 100 mM KCl, 0.1% BSA, 0.01% Tween-20, pH 7.5, 37 C; inhibited by hydrazides; purified recombinant protein; protein details: His-tag, expressed in bacteria, Ni-NTA purified; letters built from the parent sequence and the stated change
Fpg (Escherichia coli) = biological target: T1, Fpg (Escherichia coli) (UniProt P05523); experiment: enzyme reaction in vitro; conditions: n is 8-oxo-guanine; complement SEQ:2 appears printed 3'-5' [6 (8-oxo-guanine)]; 37 C 10 min, 25 nM substrate; OGG1 inhibitors IC50 >50 uM; purified recombinant protein; protein details: New England Biolabs; letters built from the parent sequence and the stated change
T1 sequence (looked up, limits assumed): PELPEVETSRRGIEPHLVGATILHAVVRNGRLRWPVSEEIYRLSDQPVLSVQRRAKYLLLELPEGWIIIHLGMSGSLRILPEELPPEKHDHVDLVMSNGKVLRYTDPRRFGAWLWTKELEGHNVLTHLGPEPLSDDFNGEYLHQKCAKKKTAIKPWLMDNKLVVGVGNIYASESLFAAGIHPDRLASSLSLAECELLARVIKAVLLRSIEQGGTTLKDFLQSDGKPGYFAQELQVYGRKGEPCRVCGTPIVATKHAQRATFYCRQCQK

TCACCGTCGTACGACTC (double strand) [8-oxo-Gua 17-mer duplex]
activity on this sequence [1]: active
activity on this sequence (Fpg (Escherichia coli)): active
